Literature values as cited in paper PMC4482062 (Nucleic Acids Research, 2015).
Several values for one entry are separate records, joined by “and”; a condition that tells them apart may be missing. Equal values may be shown once.

Settings: cited from earlier work

C[S+](CC[C@H](N)C(=O)[O-])C[C@H]1O[C@@H](n2cnc3c(N)ncnc32)[C@H](O)[C@@H]1O (some centres unmarked) [SAM, reference compound]
cellular concentration in E. coli: 200 µM and 180 µM | physiological concentration in E. coli: 0.2 mM
